Oligonucleotides screened, 5′ to 3′:
T1: TPP riboswitch RNA three-way junction, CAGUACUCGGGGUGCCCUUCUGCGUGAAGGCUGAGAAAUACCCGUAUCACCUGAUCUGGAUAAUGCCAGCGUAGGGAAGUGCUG. About 160 hits among about 24,000 compounds.
T2: PreQ1 riboswitch RNA pseudoknot, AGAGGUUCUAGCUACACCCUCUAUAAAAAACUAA. From B. subtilis. About 170 hits among about 24,000 compounds.

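The test is a small-molecule microarray: each compound is printed twice on a reactive slide, and binding shows as fluorescence of the labelled oligonucleotide after washing. For the PreQ1, TPP and SAM-II riboswitches the laboratory earlier reported (doi:10.1038/s41467-019-09493-3) 1 µM RNA, 2 h, and a rule that included a mean Z-score above 3 (spot signal-to-noise against the whole library), a score well above that on a control array, and duplicate spots agreeing (coefficient of variation under 100). The data file gives only the calls; its cut-offs may differ, and compounds hitting several targets are kept. These are primary screening calls, not affinities; a compound without a hit may have attached poorly or may still bind in solution.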
Key: active = hit, inactive = tested without a hit.
Compounds were drawn at random from those tested, without regard to their results.

* CCOC(=O)c1c(N)n(-c2ccc(C)c(C)c2)c2nc3ccccc3nc12 : T1: inactive; T2: inactive
* CC(C)OC(=O)C1=C(N)OC2=C(C(=O)CC(C)(C)C2)C12C(=O)Nc1ccccc12 (configuration not stated) : T1: inactive; T2: inactive
* COc1ccc(NC2CC(=O)N(c3ccc(Br)cc3)C2=O)cc1 (configuration not stated) : T1: inactive; T2: inactive
* O=C(c1ccc2c(c1)CCC2)N1CCC(Cc2ccc(CO)cc2)C1 (configuration not stated) : T1: inactive; T2: inactive
* Cc1nn(CC(=O)NCC(O)c2cccc(F)c2)c(=O)c2ccccc12 (configuration not stated) : T1: inactive; T2: inactive
* O=C(Nc1ccccc1)C1=C(NCc2ccco2)c2ccccc2S1(=O)=O : T1: inactive; T2: inactive
* Cn1c(CN2CCOCC2)nc2cc(NCc3ccccn3)ccc21 : T1: inactive; T2: inactive
* CCSC[C@H](N)C(=O)NCc1c(C)ncc2c1CCNC2 : T1: inactive; T2: inactive
* O=c1cc(-c2ccccc2)oc2ccc(O)cc12 : T1: inactive; T2: inactive
* COc1ccccc1-c1nnc(SCC#CCO)o1 : T1: inactive; T2: inactive
* COCCNc1nc2c(c(=O)n(C)c(=O)n2C)n1Cc1ccccc1F : T1: inactive; T2: inactive
* COc1ccc(C2Sc3ccccc3N(CCN(C)C)C(=O)C2OC(C)=O)cc1 (configuration not stated) : T1: inactive; T2: inactive
* CCN(CC)S(=O)(=O)c1ccc(Nc2c3c(nc4ccccc24)CCCC3)cc1 : T1: inactive; T2: inactive
* O=C(/C=C/c1cccnc1)/C=C/c1cccnc1 : T1: inactive; T2: inactive
* OCCCn1ccnc1-c1ccc(-c2ccccc2F)o1 : T1: inactive; T2: inactive
* O=C1SC(Nc2ccc(Cl)cc2)C(=O)N1c1ccccc1 (configuration not stated) : T1: inactive; T2: inactive
* COc1ccccc1[As](=O)(O)CC(O)COc1ccc(Cl)cc1Cl (configuration not stated) : T1: inactive; T2: inactive
* NC(=O)Oc1cccc(OC(N)=O)c1 : T1: inactive; T2: inactive
* NC1=C(c2nc3ccccc3s2)C(=O)CN1c1cccc(Br)c1 : T1: inactive; T2: inactive
* CC(C)CNc1nnnc2c1sc1nc(N3CCOCC3)c3c(c12)CCCC3 : T1: inactive; T2: inactive
* Fc1ccccc1Nc1nc(-c2cccnc2)cs1 : T1: inactive; T2: inactive
* Cc1ccc2nc(NCc3ccccc3Cl)c(-c3noc(C)n3)cc2c1 : T1: inactive; T2: inactive
* CSc1nc(N)cc(N2C[C@@H]3CC[C@H](C2)N(CC2CC2)C3=O)n1 : T1: inactive; T2: inactive
* CCCCCC(=O)N1CCCC1 : T1: inactive; T2: inactive
* CN(C)c1ccc(-c2nc3ncc(Cl)c(N4CCN(CC(=O)Nc5nccs5)CC4)c3[nH]2)cc1 : T1: inactive; T2: inactive
* O=C(Nc1cccc([N+](=O)[O-])c1)c1cc2ccccc2cc1O : T1: inactive; T2: inactive
* C[n+]1c(CCCCO)sc2ccccc21.[I-] : T1: inactive; T2: inactive
* Nc1nonc1C(=O)N1CCCN(C(=O)Nc2ccc(Cl)cc2)CC1 : T1: inactive; T2: inactive
* CCOC(=O)c1cccc(N2C(=O)C3C4C=CC(CO)(O4)C3C2=O)c1 (configuration not stated) : T1: inactive; T2: inactive
* COc1cccc(-c2n[nH]cc2C(=O)NCC(O)c2ccccc2Cl)c1 (configuration not stated) : T1: inactive; T2: inactive
* CC1CC=C(O)C12OCC(C)(C)CO2 (configuration not stated) : T1: inactive; T2: inactive
* CN(C)C[C@H]1C[C@@H](CO)CN(S(=O)(=O)c2ccccc2C#N)C1 : T1: inactive; T2: inactive
* CCO.Nc1nc(N)c2cc(Sc3ccc4ccccc4c3)ccc2n1 : T1: inactive; T2: inactive
* CCOc1ccc(CNc2nc[nH]n2)cc1OCC : T1: inactive; T2: inactive
* CC(C)N(Cc1ccccc1)S(=O)(=O)c1nnc(C(C)(C)C)[nH]1 : T1: inactive; T2: inactive
* O=C1OC(Nc2ccc(Cl)cc2)c2ccccc21 (configuration not stated) : T1: inactive; T2: inactive

Source: the ROBIN nucleic acid binder screens (doi:10.1002/anie.202211358).